Data as given in PubChem BioAssay AID652243 (Drosophila RNAi Screening Center, 2013).

Aim: 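Fly regulators of androgen-dependent reporter output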 (primary screen)
Cell system: Drosophila S2R+ cells
Reagent: long dsRNA against Drosophila genes
Time to read-out: 72 h (48 h, then 24 h hormone)
Challenge: synthetic androgen R1881 at 10 nM for 24 h
Measurement: 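Per-well raw luminescence of the androgen-driven firefly reporter and of the Renilla control, two replicates each, without normalisation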
Reading the numbers: firefly reporter light: higher = more light from androgen-responsive reporter; Renilla control light: higher = more constitutive control signal (cell number, transfection)
Hit rule: 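Across duplicate plates, a knock-down whose log firefly/Renilla ratio shifted a set fold down or up from the GFP/LacZ control mean was a hit; the downward cut appears as both 1.5 and 3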
Meaning of the calls: active = hit: reporter lowered or raised; inactive = no hit
The screen tested about 24,000 reagents; this is a random part of those that have a named target and a result. Of all reagents, 246 (1%) got an active call. 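Plates not normalised; calls are printed but the firefly/Renilla ratio behind them is not deposited; fold cut for lowering reported inconsistently.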 The raw values are shown without normalisation. Reagents against one gene are numbered here. Names joined by + are all predicted targets of the reagent. Not stated in the record: the amount of reagent.

Gene | reagent | firefly reporter light, replicate 1 | firefly reporter light, replicate 2 | Renilla control light, replicate 1 | Renilla control light, replicate 2 | activity call
cysu | 1 | 66327 | 62858 | 2.07e6 | 1.16e6 | inactive
cysu | 2 | 1.01e6 | 1.06e6 | 3.26e5 | 2.51e5 | inactive
cysu | 3 | 9.54e5 | 9.36e5 | 2.10e6 | 1.94e6 | inactive
eEF5 | 1 | 2.58e5 | 2.95e5 | 2.13e6 | 1.64e6 | inactive
fu | 1 | 1.84e5 | 1.03e5 | 1.20e6 | 2.93e5 | inactive
fu | 2 | 8.40e5 | 7.25e5 | 2.35e6 | 1.16e6 | inactive
fu | 3 | – | – | – | – | inactive
Cpn | 1 | 7252 | 14617 | 2.60e5 | 2.52e5 | inactive
Cpn | 2 | 4.25e5 | 3.29e5 | 3.75e5 | 4.87e5 | inactive
Cdc2rk | 1 | 1.99e5 | 2.06e5 | 1.23e6 | 1.50e6 | inactive
Cdc2rk | 2 | 4.71e5 | 3.02e5 | 1.72e6 | 1.66e6 | inactive
Cdc2rk | 3 | – | – | – | – | inactive
Dtwd2 | 1 | 40925 | 1.02e5 | 1.11e6 | 7.01e5 | inactive
jbug | 1 | 2.84e5 | 3.63e5 | 4.85e5 | 5.55e5 | inactive
jbug | 2 | 5.74e5 | 5.30e5 | 9.84e5 | 1.12e6 | inactive
jbug | 3 | 3.65e5 | 3.62e5 | 2.31e6 | 2.14e6 | inactive
jbug | 4 | 2.10e5 | 1.90e5 | 1.63e6 | 1.18e6 | inactive
jbug | 5 | 4.55e5 | 3.46e5 | 1.26e6 | 1.26e6 | inactive
Gr93c | 1 | 2.46e5 | 2.19e5 | 3.40e6 | 3.03e6 | inactive
CG11134 | 1 | 3.40e5 | 4.55e5 | 2.55e6 | 3.44e6 | inactive
Meics | 1 | 2.42e5 | 1.87e5 | 2.16e6 | 1.30e6 | inactive
Meics | 2 | 3.99e5 | 2.42e5 | 7.05e5 | 7.05e5 | inactive
PolE2 | 1 | 7.72e5 | 8.81e5 | 1.03e6 | 1.88e6 | inactive
CG13585 | 1 | 4.92e5 | 4.06e5 | 1.96e6 | 2.38e6 | inactive
CG17065 | 1 | 2.18e5 | 1.09e5 | 8.23e5 | 3.31e5 | inactive
CG17065 | 2 | 3.52e5 | 3.95e5 | 3.69e5 | 3.24e5 | inactive
CG42747 | 1 | 88424 | 92191 | 8.73e5 | 1.62e6 | inactive
CG42747 | 2 | 1.33e5 | 1.40e5 | 1.42e6 | 2.22e6 | inactive
CG42747 | 3 | 2.90e5 | 3.45e5 | 6.43e5 | 6.75e5 | inactive
CG11666 | 1 | 7.52e5 | 6.84e5 | 1.80e6 | 1.51e6 | inactive
CG3085 | 1 | 7.34e5 | 7.50e5 | 9.01e5 | 7.85e5 | inactive
Eglp3 | 1 | 2.11e5 | 1.84e5 | 1.06e6 | 1.01e6 | inactive
Eglp3 | 2 | 1.14e6 | 9.88e5 | 8.23e5 | 6.33e5 | inactive
CG18754 | 1 | 1.26e5 | 1.78e5 | 1.90e6 | 1.86e6 | inactive
CG34140 + Mkp | 1 | 5.05e5 | 6.08e5 | 4.90e5 | 4.39e5 | inactive
ND2 (retired record) | 1 | 7.03e5 | 8.44e5 | 2.06e6 | 2.01e6 | inactive
CG30491 | 1 | 6.49e5 | 6.42e5 | 1.51e6 | 1.34e6 | inactive
CG30491 | 2 | 6.50e5 | 6.49e5 | 6.33e5 | 6.12e5 | inactive
CG2617 | 1 | 1.50e5 | 1.62e5 | 1.13e6 | 9.93e5 | inactive
CG2617 | 2 | 6.84e5 | 8.30e5 | 6.32e5 | 5.90e5 | inactive

2 entries from above, reformatted:
Gene,reagent,"firefly reporter light, replicate 1","firefly reporter light, replicate 2","Renilla control light, replicate 1","Renilla control light, replicate 2",activity call
Cpn,1,7252,14617,2.60e5,2.52e5,inactive
Cpn,2,4.25e5,3.29e5,3.75e5,4.87e5,inactive
